{"source": "PubChem BioAssay AID1259308 | NCATS, 2017", "aim": "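Candidate targets for better recombinant protein yield in mammalian cells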 (primary screen)", "cell system": "human HEK293 embryonic kidney cells stably expressing firefly luciferase (HEK-CMV-Luc2-Hygro)", "knock-down reagent": "single siRNA against human genes, 0.8 pmol siRNA per well", "duration": "72 h", "detection": "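Luciferase light (ONE-Glo) measured on one replicate plate set and viability (CellTiter-Glo) on the other, scaled to a negative control siRNA, with robust z-scores and luciferase per cell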", "scale": "total luciferase, z-score: higher = more reporter protein produced", "rule for the call": "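Active when the median/MAD z-score for overall luciferase is greater than 3; a gene was taken forward for validation with new siRNAs if at least two of its three siRNAs passed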", "meaning of the calls": "active = raised luciferase; inactive = no rise", "note": "Here is one part, drawn at random, of about 59,000 reagents tested. About 1,510 of all reagents (2.6%) count as active. 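Calls use total luciferase alone and ignore viability, so some active siRNAs may act by altering cell number.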 Reagents against one gene are numbered here. Further read-outs or replicates are left out here."}
{"Target gene": "ROBO4 (roundabout guidance receptor 4)", "siRNA no.": 1, "total luciferase, z-score": 0.774, "outcome": "inactive"}
{"Target gene": "ROBO4 (roundabout guidance receptor 4)", "siRNA no.": 2, "total luciferase, z-score": -0.544, "outcome": "inactive"}
{"Target gene": "ROBO4 (roundabout guidance receptor 4)", "siRNA no.": 3, "total luciferase, z-score": -0.404, "outcome": "inactive"}
{"Target gene": "SIRT1 (sirtuin 1)", "siRNA no.": 1, "total luciferase, z-score": -0.147, "outcome": "inactive"}
{"Target gene": "SIRT1 (sirtuin 1)", "siRNA no.": 2, "total luciferase, z-score": 3.32, "outcome": "active"}
{"Target gene": "SIRT1 (sirtuin 1)", "siRNA no.": 3, "total luciferase, z-score": 1.26, "outcome": "inactive"}
{"Target gene": "GLUD1 (glutamate dehydrogenase 1)", "siRNA no.": 1, "total luciferase, z-score": 1.41, "outcome": "inactive"}
{"Target gene": "GLUD1 (glutamate dehydrogenase 1)", "siRNA no.": 2, "total luciferase, z-score": 0.681, "outcome": "inactive"}
{"Target gene": "GLUD1 (glutamate dehydrogenase 1)", "siRNA no.": 3, "total luciferase, z-score": -1.12, "outcome": "inactive"}
{"Target gene": "ZNF833P (zinc finger protein 833, pseudogene)", "siRNA no.": 1, "total luciferase, z-score": 0.51, "outcome": "inactive"}
{"Target gene": "ZNF833P (zinc finger protein 833, pseudogene)", "siRNA no.": 2, "total luciferase, z-score": 0.28, "outcome": "inactive"}
{"Target gene": "ZNF833P (zinc finger protein 833, pseudogene)", "siRNA no.": 3, "total luciferase, z-score": -0.251, "outcome": "inactive"}
{"Target gene": "DDN (dendrin)", "siRNA no.": 1, "total luciferase, z-score": 1.23, "outcome": "inactive"}
{"Target gene": "DDN (dendrin)", "siRNA no.": 2, "total luciferase, z-score": -1, "outcome": "inactive"}
{"Target gene": "DDN (dendrin)", "siRNA no.": 3, "total luciferase, z-score": -0.221, "outcome": "inactive"}
{"Target gene": "KLB (klotho beta)", "siRNA no.": 1, "total luciferase, z-score": 2.69, "outcome": "inactive"}
{"Target gene": "KLB (klotho beta)", "siRNA no.": 2, "total luciferase, z-score": 0.17, "outcome": "inactive"}
{"Target gene": "KLB (klotho beta)", "siRNA no.": 3, "total luciferase, z-score": 0.187, "outcome": "inactive"}
{"Target gene": "MIR1915HG (MIR1915 host gene)", "siRNA no.": 1, "total luciferase, z-score": 0.131, "outcome": "inactive"}
{"Target gene": "MIR1915HG (MIR1915 host gene)", "siRNA no.": 2, "total luciferase, z-score": 0.231, "outcome": "inactive"}
{"Target gene": "MIR1915HG (MIR1915 host gene)", "siRNA no.": 3, "total luciferase, z-score": -1.86, "outcome": "inactive"}

Part of the list above, set out differently.
Target gene,siRNA no.,"total luciferase, z-score",outcome
ROBO4 (roundabout guidance receptor 4),2,-0.544,inactive
ROBO4 (roundabout guidance receptor 4),3,-0.404,inactive
SIRT1 (sirtuin 1),1,-0.147,inactive
SIRT1 (sirtuin 1),2,3.32,active
SIRT1 (sirtuin 1),3,1.26,inactive
GLUD1 (glutamate dehydrogenase 1),1,1.41,inactive
GLUD1 (glutamate dehydrogenase 1),2,0.681,inactive

The list goes on.
{"Target gene": "AKAP17A (A-kinase anchoring protein 17A)", "siRNA no.": 1, "total luciferase, z-score": -0.385, "outcome": "inactive"}
{"Target gene": "AKAP17A (A-kinase anchoring protein 17A)", "siRNA no.": 2, "total luciferase, z-score": 1.98, "outcome": "inactive"}
{"Target gene": "AKAP17A (A-kinase anchoring protein 17A)", "siRNA no.": 3, "total luciferase, z-score": -1.56, "outcome": "inactive"}
{"Target gene": "AMPD2 (adenosine monophosphate deaminase 2)", "siRNA no.": 1, "total luciferase, z-score": 0.806, "outcome": "inactive"}
{"Target gene": "AMPD2 (adenosine monophosphate deaminase 2)", "siRNA no.": 2, "total luciferase, z-score": 0.976, "outcome": "inactive"}
{"Target gene": "AMPD2 (adenosine monophosphate deaminase 2)", "siRNA no.": 3, "total luciferase, z-score": -1.18, "outcome": "inactive"}
{"Target gene": "F11R (F11 receptor)", "siRNA no.": 1, "total luciferase, z-score": -1.14, "outcome": "inactive"}
{"Target gene": "F11R (F11 receptor)", "siRNA no.": 2, "total luciferase, z-score": 0.0248, "outcome": "inactive"}
{"Target gene": "F11R (F11 receptor)", "siRNA no.": 3, "total luciferase, z-score": 0.599, "outcome": "inactive"}
{"Target gene": "CCNI (cyclin I)", "siRNA no.": 1, "total luciferase, z-score": -0.248, "outcome": "inactive"}
{"Target gene": "CCNI (cyclin I)", "siRNA no.": 2, "total luciferase, z-score": -0.761, "outcome": "inactive"}
{"Target gene": "CCNI (cyclin I)", "siRNA no.": 3, "total luciferase, z-score": -0.0658, "outcome": "inactive"}
{"Target gene": "MICAL2", "siRNA no.": 1, "total luciferase, z-score": -0.4, "outcome": "inactive"}
{"Target gene": "MICAL2", "siRNA no.": 2, "total luciferase, z-score": -0.259, "outcome": "inactive"}
{"Target gene": "MICAL2", "siRNA no.": 3, "total luciferase, z-score": 0.249, "outcome": "inactive"}
{"Target gene": "MICAL2", "siRNA no.": 4, "total luciferase, z-score": -0.402, "outcome": "inactive"}
{"Target gene": "MICAL2", "siRNA no.": 5, "total luciferase, z-score": 0.663, "outcome": "inactive"}
{"Target gene": "MICAL2", "siRNA no.": 6, "total luciferase, z-score": 4.45, "outcome": "active"}
{"Target gene": "AGR2", "siRNA no.": 1, "total luciferase, z-score": -0.737, "outcome": "inactive"}
{"Target gene": "AGR2", "siRNA no.": 2, "total luciferase, z-score": 0.159, "outcome": "inactive"}
{"Target gene": "AGR2", "siRNA no.": 3, "total luciferase, z-score": 1.44, "outcome": "inactive"}
